{
  "source": "patent US7897566",
  "about": "(dated 2011)",
  "data": [
    {"assay": "peptide synthesis", "details": "whole synthesis", "units": {"final HPLC purity": "%"}, "values": [
      {"substance": "(Aib^8,35,37, Arg^26,34, Gaba^38)hGLP-1(7-38)NH2", "final HPLC purity": 99.9},
      {"substance": "(Aib^8,35,37, Arg^26,34, Phe^31, Gaba^38)hGLP-1(7-38)NH2", "final HPLC purity": 99.9},
      {"substance": "(Aib^8,35,37, Arg^34, Phe^31, Gaba^38)hGLP-1(7-38)NH2", "final HPLC purity": 96.8},
      {"substance": "(Aib^8,35,37, Gaba^38)hGLP-1(7-38)NH2", "final HPLC purity": 97.7}
    ]},
    {"assay": "general procedure: Fmoc solid-phase peptide synthesis; Rink Amide MBHA resin (Novabiochem), 0.66 mmol/g; HBTU/HOBT, DIEA", "details": "whole synthesis, analytical HPLC, scale of the general procedure 0.1 mmol", "units": {"final HPLC purity": "%"}, "values": [
      {"substance": "((3-(2,4-dihydroxyphenyl)-propionyl)^7)hGLP-1(7-36)NH2", "final HPLC purity": 98.6},
      {"substance": "((3-(2-hydroxyphenyl)-propionyl)^7)hGLP-1(7-36)NH2", "final HPLC purity": 98.0},
      {"substance": "((3-(3-hydroxyphenyl)-propionyl)^7)hGLP-1(7-36)NH2", "final HPLC purity": 99.0},
      {"substance": "((3-(4-aminophenyl)-propionyl)^7)hGLP-1(7-36)NH2", "final HPLC purity": 99.0},
      {"substance": "((3-chloro-4-hydroxyphenyl-acetyl)^7)hGLP-1(7-36)NH2", "final HPLC purity": 97.2},
      {"substance": "((3-fluoro-4-hydroxyphenyl-acetyl)^7)hGLP-1(7-36)NH2", "final HPLC purity": 95.1},
      {"substance": "((4-aminophenyl-acetyl)^7)hGLP-1(7-36)NH2", "final HPLC purity": 99.0},
      {"substance": "(Aib^8,35,37, Arg^26,34, Ava^38)hGLP-1(7-38)NH2", "final HPLC purity": 96.7},
      {"substance": "(Aib^8,35,37, Arg^26,34, D-His^38)hGLP-1(7-38)NH2", "final HPLC purity": 99.9},
      {"substance": "(Aib^8,35,37, Arg^26,34, Gly^38)hGLP-1(7-38)NH2", "final HPLC purity": 97.4},
      {"substance": "(Aib^8,35,37, Arg^26,34, His^38)hGLP-1(7-38)NH2", "final HPLC purity": 97.0},
      {"substance": "(Aib^8,35,37, Arg^26,34, Phe^31, Asn^38)hGLP-1(7-38)-NH2", "final HPLC purity": 99.0},
      {"substance": "(Aib^8,35,37, Arg^26,34, Phe^31, Ava^38)hGLP-1(7-38)NH2", "final HPLC purity": 99.1},
      {"substance": "(Aib^8,35,37, Arg^26,34, Phe^31, D-His^38)hGLP-1(7-38)NH2", "final HPLC purity": 98.6},
      {"substance": "(Aib^8,35,37, Arg^26,34, Phe^31, Gly^38)hGLP-1(7-38)NH2", "final HPLC purity": 99.9},
      {"substance": "(Aib^8,35,37, Arg^26,34, Phe^31, His^38)hGLP-1(7-38)NH2", "final HPLC purity": 99.9},
      {"substance": "(Aib^8,35,37, Arg^26,34, Phe^31, Ser^38)hGLP-1(7-38)NH2", "final HPLC purity": 97.5},
      {"substance": "(Aib^8,35,37, Arg^26,34, Phe^31, β-Ala^38)hGLP-1(7-38)NH2", "final HPLC purity": 99.9},
      {"substance": "(Aib^8,35,37, Arg^34, Phe^31, D-His^38)hGLP-1(7-38)NH2", "final HPLC purity": 99.9},
      {"substance": "(Aib^8,35,37, Arg^34, Phe^31, Gly^38)hGLP-1(7-38)NH2", "final HPLC purity": 99.9},
      {"substance": "(Aib^8,35,37, Arg^34, Phe^31, His^38)hGLP-1(7-38)NH2", "final HPLC purity": 99.9},
      {"substance": "(Aib^8,35,37, Arg^34, Phe^31, β-Ala^38)hGLP-1(7-38)NH2", "final HPLC purity": 99.9},
      {"substance": "(Aib^8,35,37, Gly^38)hGLP-1(7-38)NH2", "final HPLC purity": 95.8},
      {"substance": "(Aib^8,35,37, β-Ala^38)hGLP-1(7-38)NH2", "final HPLC purity": 99.9},
      {"substance": "(Aib^8,35, Arg^26,34, Phe^31, Pro^37, Ser^38,39)hGLP-1(7-39)-NH2", "final HPLC purity": 95.0},
      {"substance": "(Aib^8,35, Arg^26,34, Phe^31, β-Ala^37,38)hGLP-1(7-38)NH2", "final HPLC purity": 99.9},
      {"substance": "(Aib^8,35, Arg^26,34, Phe^31, β-Ala^37, D-His^38)hGLP-1(7-38)NH2", "final HPLC purity": 99.9},
      {"substance": "(Aib^8,35, Arg^26,34, Phe^31, β-Ala^37, His^38)hGLP-1(7-38)NH2", "final HPLC purity": 99.9},
      {"substance": "(Aib^8,35, Arg^26,34, β-Ala^37, His^38)hGLP-1(7-38)NH2", "final HPLC purity": 99.3}
    ]},
    {"assay": "general procedure: Fmoc solid-phase peptide synthesis; Rink Amide MBHA resin (Novabiochem), 0.66 mmol/g; HBTU/HOBT, DIEA", "details": "whole synthesis, scale 0.1 mmol", "units": {"isolated mass": "mg", "isolated yield": "%"}, "values": [
      {"substance": "((3-fluoro-4-hydroxyphenyl-acetyl)^7)hGLP-1(7-36)NH2", "isolated mass": 5.6, "isolated yield": 1.7}
    ]},
    {"assay": "general procedure: Fmoc solid-phase peptide synthesis; Rink Amide MBHA resin (Novabiochem), 0.66 mmol/g; HBTU/HOBT, DIEA", "details": "whole synthesis, scale of the general procedure 0.1 mmol", "units": {"isolated yield": "%"}, "values": [
      {"substance": "(Aib^8,35, Arg^26,34, Phe^31, Pro^37, Ser^38,39)hGLP-1(7-39)-NH2", "isolated yield": 7.9}
    ]}
  ]
}
